The values below come from PMC6755085, “Cyclic oligoadenylate signalling mediates Mycobacterium tuberculosis CRISPR defence” (Nucleic Acids Research, 2019).

Chains of the proteins cited; added tags and fusions are not shown. Lines headed by an entry give the natural chain unless they say otherwise; changes in a name come on top.
UniProt P9WJF9: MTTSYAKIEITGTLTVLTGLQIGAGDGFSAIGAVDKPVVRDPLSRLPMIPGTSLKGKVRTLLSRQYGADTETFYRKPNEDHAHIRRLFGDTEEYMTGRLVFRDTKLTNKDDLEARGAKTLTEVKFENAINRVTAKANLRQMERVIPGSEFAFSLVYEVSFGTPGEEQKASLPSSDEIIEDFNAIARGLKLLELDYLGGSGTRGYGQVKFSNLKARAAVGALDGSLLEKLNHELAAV

No constants are given. Whether binding was seen depends on the method and setting. In cells and extracts the contact can be indirect. Binding can be weak; no strength is given. Sequences can lack the tags named with a protein.

The target in the test is T1, Mycobacterium tuberculosis Csm4 (Cas5), His6-tagged (Mycobacterium tuberculosis) (UniProt P9WJF6).
T1 sequence: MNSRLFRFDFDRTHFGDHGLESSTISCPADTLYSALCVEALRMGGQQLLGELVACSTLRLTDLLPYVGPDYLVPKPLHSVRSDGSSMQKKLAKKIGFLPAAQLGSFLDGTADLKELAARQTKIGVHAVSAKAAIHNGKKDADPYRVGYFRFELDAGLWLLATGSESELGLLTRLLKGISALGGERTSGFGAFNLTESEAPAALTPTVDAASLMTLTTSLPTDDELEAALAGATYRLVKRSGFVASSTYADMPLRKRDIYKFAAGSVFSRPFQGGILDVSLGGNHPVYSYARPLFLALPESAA
Briefly: pull-down.

With “Mycobacterium tuberculosis Csm3 (Cas7) (from UniProt P9WJF9)”, the binding result was “binds”.
